Values from PubChem BioAssay AID504764 (Drosophila RNAi Screening Center, 2011).

Purpose: 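Knock-downs that raise or lower a Notch target reporter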 (primary screen)
System: Drosophila Kc167 cells
Reagents: long dsRNA against Drosophila genes
Timing: about 5 days (4 days dsRNA, then 24 h after transfection)
Treatment: transfection of constitutively active membrane-tethered Notch lacking the extracellular domain, read 24 h later
Detection: 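Firefly luciferase from an E(spl)m3 reporter with active Notch, plus control-promoter and uninduced reporter wells for normalisation; unnormalised counts, duplicate wells a and b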
Scale: induced reporter light, run 1, well a and induced reporter light, run 1, well b: higher = more light from the Notch target reporter with active Notch; control promoter light, run 1, well a and control promoter light, run 1, well b: higher = more light from the viral control promoter (cell number, transfection, viability); uninduced reporter light, run 1, well a: higher = more light from the Notch target reporter without active Notch
Call rule: 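Hit if the duplicate-averaged log2 ratio of induced to control-promoter light gives a plate-wise z beyond ±2, or induced to uninduced beyond ±1.8; weak-control or discordant-duplicate wells dropped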
Calls: active = modifier hit (raised or lowered Notch signal); inactive = not a hit
In all, the deposit lists about 22,000 reagents; shown is a random part of those with a known target gene and a result. In the full data, 403 (1.9%) are marked active. 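Unnormalised raw counts per well; ratio z-scores behind the hit calls and whether each hit raises or lowers signal are not deposited.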 The numbers tell different reagents against one gene apart. Not given: the amount of reagent.

predicted target	dsRNA no.	induced reporter light, run 1, well a	induced reporter light, run 1, well b	control promoter light, run 1, well a	control promoter light, run 1, well b	uninduced reporter light, run 1, well a	outcome
CG15706	1	69935	67785	98215	76465	7590	inactive
CG34290	1	2.03e5	1.88e5	2.01e5	1.94e5	16935	inactive
Phf7	1	1.40e5	1.42e5	1.28e5	87455	12330	inactive
CG33109	1	3.48e5	3.56e5	3.44e5	3.75e5	27170	inactive
CG12746	1	1.03e5	1.09e5	69285	75850	9910	inactive
hfw	1	1.31e5	94960	2.07e5	2.13e5	7770	inactive
nudE	1	1.39e5	1.37e5	1.72e5	1.58e5	9235	inactive
nudE	2	1.66e5	1.06e5	1.87e5	1.94e5	8992	inactive
PpY-55A	1	1.18e5	1.07e5	1.26e5	1.26e5	9300	inactive
Usp5	1	49850	60600	67425	57620	3200	inactive
klu	1	1.53e5	1.40e5	1.61e5	1.31e5	8170	inactive
CG7168	1	1.69e5	2.23e5	2.58e5	2.73e5	17250	inactive
GLaz	1	76595	72960	90595	1.07e5	7130	inactive
CG31089	1	1.72e5	1.71e5	1.89e5	1.83e5	13860	inactive
hts	1	1.21e5	76260	1.14e5	75400	8840	inactive
CG12426	1	1.52e5	1.03e5	2.14e5	1.72e5	11080	inactive
CG31229	1	54805	55760	55815	62350	6335	inactive
CG31908	1						inactive
LKRSDH	1	89480	98200	84170	83260	6315	inactive
CG15570	1	1.20e5	1.22e5	2.38e5	1.90e5	9635	inactive

In a second layout: 3 of the entries above.
predicted target | dsRNA no. | induced reporter light, run 1, well a | induced reporter light, run 1, well b | control promoter light, run 1, well a | control promoter light, run 1, well b | uninduced reporter light, run 1, well a | outcome
nudE | 2 | 1.66e5 | 1.06e5 | 1.87e5 | 1.94e5 | 8992 | inactive
PpY-55A | 1 | 1.18e5 | 1.07e5 | 1.26e5 | 1.26e5 | 9300 | inactive
Usp5 | 1 | 49850 | 60600 | 67425 | 57620 | 3200 | inactive
